These results got no clear call from the source, so the numbers are uncertain. Unless noted, calls come from the whole dose curve; as a rule, active = well fitted curve in the direction sought with a large enough effect; inconclusive = small, poorly fitted or top-dose-only effect, or another doubt; inactive = no such curve, though single readings can be large; an effect the other way counts as inactive or inconclusive.
Tests used:
[1] = Cell Viability - NIH 3T3 (AID 541); details: NIH 3T3 cell viability, qHTS; at 92.2 µM (top of the series);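 note: cells exposed to compound for 40 hours; plate controls were DMSO alone for no effect and tamoxifen positive control for full effect; nearly all actives have a fitted effect of over 25% in size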
Method in brief: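 In this cytotoxicity screen, acute toxicity is scored as an ATP drop measured by CellTiter-Glo in NIH 3T3 fibroblasts following a 40 hr, 37 °C incubation with compound.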

Protein sequences, listed by entry. Tags and fused reporters are not part of them.
UniProt O15297, whole entry: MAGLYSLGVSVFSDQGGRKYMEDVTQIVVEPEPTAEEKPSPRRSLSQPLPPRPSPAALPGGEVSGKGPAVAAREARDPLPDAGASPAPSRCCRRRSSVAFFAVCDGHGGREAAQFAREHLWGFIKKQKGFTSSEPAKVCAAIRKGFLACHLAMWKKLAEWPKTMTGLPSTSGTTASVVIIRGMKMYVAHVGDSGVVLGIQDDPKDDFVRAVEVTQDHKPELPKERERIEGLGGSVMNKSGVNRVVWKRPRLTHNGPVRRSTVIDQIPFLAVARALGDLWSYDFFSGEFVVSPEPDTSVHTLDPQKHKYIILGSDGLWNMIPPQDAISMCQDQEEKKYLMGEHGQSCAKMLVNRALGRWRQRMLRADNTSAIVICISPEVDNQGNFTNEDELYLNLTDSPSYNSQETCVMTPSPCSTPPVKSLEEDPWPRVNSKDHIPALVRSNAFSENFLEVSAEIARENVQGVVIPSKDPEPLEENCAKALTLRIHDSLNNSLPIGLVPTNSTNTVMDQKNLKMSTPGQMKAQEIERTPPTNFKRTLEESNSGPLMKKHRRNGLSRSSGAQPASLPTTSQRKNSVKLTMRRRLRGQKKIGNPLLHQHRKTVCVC
UniProt Q03181, whole entry: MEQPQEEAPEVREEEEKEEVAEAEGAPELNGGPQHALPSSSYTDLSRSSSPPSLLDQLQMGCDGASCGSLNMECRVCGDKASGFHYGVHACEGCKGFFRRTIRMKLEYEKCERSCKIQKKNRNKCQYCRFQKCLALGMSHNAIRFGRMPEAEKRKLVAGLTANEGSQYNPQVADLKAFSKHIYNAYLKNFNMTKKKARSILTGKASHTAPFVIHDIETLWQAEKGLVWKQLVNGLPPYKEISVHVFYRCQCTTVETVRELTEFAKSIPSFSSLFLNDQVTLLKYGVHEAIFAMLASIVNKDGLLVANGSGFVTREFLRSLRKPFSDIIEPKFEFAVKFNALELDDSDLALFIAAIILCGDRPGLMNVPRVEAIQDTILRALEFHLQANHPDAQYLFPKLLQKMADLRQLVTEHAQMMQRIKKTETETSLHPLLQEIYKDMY
UniProt P27695, whole entry: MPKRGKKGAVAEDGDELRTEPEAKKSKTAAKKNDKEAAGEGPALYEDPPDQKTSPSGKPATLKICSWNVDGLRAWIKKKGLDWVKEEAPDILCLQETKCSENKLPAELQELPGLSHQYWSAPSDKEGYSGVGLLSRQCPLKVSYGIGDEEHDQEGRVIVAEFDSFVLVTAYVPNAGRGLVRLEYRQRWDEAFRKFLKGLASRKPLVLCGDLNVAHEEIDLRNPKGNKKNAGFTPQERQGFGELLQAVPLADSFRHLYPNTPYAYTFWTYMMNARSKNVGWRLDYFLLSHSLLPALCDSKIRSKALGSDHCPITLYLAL
UniProt P54132, whole entry: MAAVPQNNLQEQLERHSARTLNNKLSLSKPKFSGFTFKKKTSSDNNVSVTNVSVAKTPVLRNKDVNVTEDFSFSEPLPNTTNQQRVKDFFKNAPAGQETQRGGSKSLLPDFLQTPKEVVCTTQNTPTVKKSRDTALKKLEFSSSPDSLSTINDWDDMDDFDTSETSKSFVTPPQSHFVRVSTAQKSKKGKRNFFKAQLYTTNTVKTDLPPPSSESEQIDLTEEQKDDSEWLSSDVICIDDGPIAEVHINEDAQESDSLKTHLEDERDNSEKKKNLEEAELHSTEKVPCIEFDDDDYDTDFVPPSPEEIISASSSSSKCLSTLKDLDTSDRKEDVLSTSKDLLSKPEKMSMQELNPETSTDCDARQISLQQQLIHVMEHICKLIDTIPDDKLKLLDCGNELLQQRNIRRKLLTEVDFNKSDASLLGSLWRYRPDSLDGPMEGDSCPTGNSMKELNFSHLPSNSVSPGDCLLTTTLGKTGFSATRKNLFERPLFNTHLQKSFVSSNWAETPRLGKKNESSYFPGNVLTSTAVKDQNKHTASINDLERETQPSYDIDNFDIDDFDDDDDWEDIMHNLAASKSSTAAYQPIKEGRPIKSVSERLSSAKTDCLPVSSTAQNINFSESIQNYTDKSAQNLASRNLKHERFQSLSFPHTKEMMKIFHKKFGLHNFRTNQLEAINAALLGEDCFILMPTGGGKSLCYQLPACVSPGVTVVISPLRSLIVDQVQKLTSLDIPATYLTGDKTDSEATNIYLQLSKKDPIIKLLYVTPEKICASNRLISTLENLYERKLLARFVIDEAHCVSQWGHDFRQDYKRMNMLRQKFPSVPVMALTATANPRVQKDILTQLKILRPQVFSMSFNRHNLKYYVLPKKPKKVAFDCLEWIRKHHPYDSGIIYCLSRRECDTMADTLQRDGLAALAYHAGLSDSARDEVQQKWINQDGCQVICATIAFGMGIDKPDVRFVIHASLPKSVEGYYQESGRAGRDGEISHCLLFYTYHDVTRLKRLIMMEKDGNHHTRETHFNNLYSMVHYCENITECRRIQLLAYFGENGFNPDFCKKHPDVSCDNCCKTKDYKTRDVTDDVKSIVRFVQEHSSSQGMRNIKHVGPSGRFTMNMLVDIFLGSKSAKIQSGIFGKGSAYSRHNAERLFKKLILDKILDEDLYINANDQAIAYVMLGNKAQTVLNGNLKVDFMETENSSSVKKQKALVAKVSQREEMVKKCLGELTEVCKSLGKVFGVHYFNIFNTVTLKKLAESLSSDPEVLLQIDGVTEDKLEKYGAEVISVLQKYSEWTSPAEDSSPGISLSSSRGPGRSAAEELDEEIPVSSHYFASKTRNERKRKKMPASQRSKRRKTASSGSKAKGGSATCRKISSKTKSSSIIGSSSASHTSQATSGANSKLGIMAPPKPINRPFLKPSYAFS
UniProt O15648, whole entry: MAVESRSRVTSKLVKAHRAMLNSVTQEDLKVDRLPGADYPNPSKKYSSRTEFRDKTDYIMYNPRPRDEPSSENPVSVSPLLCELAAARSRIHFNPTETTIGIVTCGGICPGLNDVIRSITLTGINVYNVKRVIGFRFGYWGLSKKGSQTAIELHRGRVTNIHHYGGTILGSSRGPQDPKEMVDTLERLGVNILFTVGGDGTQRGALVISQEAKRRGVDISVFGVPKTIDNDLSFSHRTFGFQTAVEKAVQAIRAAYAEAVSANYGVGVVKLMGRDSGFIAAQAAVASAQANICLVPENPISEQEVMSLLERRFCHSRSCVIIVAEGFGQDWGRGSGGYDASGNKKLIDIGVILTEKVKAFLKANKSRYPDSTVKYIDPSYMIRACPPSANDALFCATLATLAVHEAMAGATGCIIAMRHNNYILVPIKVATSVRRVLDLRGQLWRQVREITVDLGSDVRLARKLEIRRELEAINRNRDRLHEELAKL

[2] = Cell Viability - H-4-II-E (AID 543); details: H-4-II-E rat hepatoma viability;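 note: potency is the fitted concentration of half-maximal effect; cells exposed to compound for 40 hours; nearly all actives have a fitted effect of over 35% in size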
Method in brief: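 AC50 from Hill-modelled qHTS concentration-response curves. H-4-II-E rat hepatoma cells in complete medium, 40 hr exposure at 37 °C, viability by CellTiter-Glo ATP luminescence.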

[3] = Cell Viability - LYMP2-010 (AID 981); details: LYMP2-010 lymphoblastoid cell viability, qHTS;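 note: potency is the fitted concentration of half-maximal effect; cells exposed to compound for 24 hours at 37 °C; nearly all actives have a fitted effect of over 55% in size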
Method in brief: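 This 24 hr viability screen uses LYMP2-010 lymphoblastoid cells, quantifies ATP via luciferase luminescence, and derives AC50 from Hill fits of qHTS concentration-response data.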

[4] = target: Bile acid receptor (Homo sapiens) (UniProt Q96RI1); experiment: qHTS assay for small molecule antagonists of farnesoid X receptor signaling (AID 588526; calls by dose curve; note: % is set by controls: 0 for no effect and ±100 for the full control effect); details: HEK293T FXR-UAS-bla, beta-lactamase ratio, antagonist mode; at 76.7 µM (top of the series)
[5] = target: Glucocorticoid receptor (Homo sapiens) (UniProt P04150); experiment: qHTS assay for small molecule antagonists of glucocorticoid receptor signaling (AID 588533; active = well fitted inhibition curve with a large enough effect in the signal ratio, with a control signal flat, not every such curve was filed as active; inconclusive = small, poorly fitted or top-dose-only effect, or effect the other way, or a change in a side signal; the % refers to the signal ratio;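 note: cells stimulated with 2 nM dexamethasone as agonist; potency is the fitted concentration of half-maximal effect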); details: HeLa MMTV-bla, GRE beta-lactamase ratio, antagonist mode, 18 h; activity change, negative = inhibition: at 76.8 µM (top of the series)
[6] = target: Retinoic acid receptor RXR-alpha (Homo sapiens) (UniProt P19793); experiment: qHTS assay for small molecule agonists of retinoid X receptor alpha signaling (AID 588544; calls by dose curve;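 note: 0% = DMSO basal wells and 100% = reference agonist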); details: HEK293T RXRa-UAS-bla, beta-lactamase reporter, 18 h; at 76.7 µM (top of the series)
[7] = S16 Schwann cell PMP22 intronic element firefly luciferase assay (AID 624032); details: S16 rat Schwann cells, PMP22 element FLuc, 24 h; note: potency is the fitted concentration of half-maximal effect; nearly all actives have a fitted effect of over 30% in size
[8] = qHTS assay for small molecule agonists of the antioxidant response element (ARE) signaling pathway (AID 651741; active = well fitted activation curve with a large enough effect in the signal ratio; inconclusive = small, poorly fitted or top-dose-only effect, or effect the other way, or a change in a side signal; the % refers to the signal ratio; note: potency is the fitted concentration of half-maximal effect); details: HepG2 ARE-bla reporter, beta-lactamase FRET ratio, 16 h; activation: at 96 µM (top of the series)
Method in brief: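 Beta-lactamase reporter expression driven by the antioxidant response element in HepG2 cells was detected by fluorescence with LiveBLAzer B/G FRET substrate (2 h, room temperature) following 16 h compound treatment at 37 C.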

[9] = qHTS assay to identify small molecules that stimulate interleukin-8 (IL-8) secretion (AID 651758; active = well fitted activation curve with a large enough effect in the signal ratio; inconclusive = small, poorly fitted or top-dose-only effect, or effect the other way, or a change in a side signal; the % refers to the signal ratio; note: 0% is about no effect); details: HTRF ratio (665/615); activation: at 92.2 µM (top of the series)
Method in brief: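 Quantitative HTS in THP-1 monocytic cells at 2000 cells per well, with 16 hrs compound incubation at 37 C. IL-8 in the medium was then quantified by HTRF immunoassay, read after 1-3 hrs at room temperature.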

[10] = qHTS assay for small molecule agonists of the antioxidant response element (ARE) signaling pathway measured by Nrf2-dependant transcriptional activity (AID 720636; active = well fitted curve in the direction sought with a large enough effect in the repeat runs; inconclusive = weak or mixed curves; inactive = no such curve, though single readings can be large; an effect the other way counts as inactive or inconclusive; note: potency is the fitted concentration of half-maximal effect); details: ARE-luc HepG2, Nrf2 luciferase reporter, 16 h
Method in brief: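 Reporter gene assay, HepG2 ARE-luc: 16 hr compound, 37 C, 5% CO2; read-out luciferase luminescence.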

[11] = qHTS assay for small molecule antagonists of the retinoid-related orphan receptor gamma (ROR-gamma) signaling pathway - cell viability counter screen (AID 720652; active = well fitted curve in the direction sought with a large enough effect in the repeat runs; inconclusive = weak or mixed curves; inactive = no such curve, though single readings can be large; an effect the other way counts as inactive or inconclusive;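 note: potency is the fitted concentration of half-maximal effect; compound exposure lasted 16 hr before ATP read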); details: RORgamma reporter cell line viability counter screen
[12] = qHTS of pediatric cancer cell lines to identify multiple opportunities for drug repurposing: Primary screen for Saos-2 cells (AID 1347097); details: Saos-2 viability, CellTiter-Glo ATP luminescence, 48 h; note: potency is the fitted concentration of half-maximal effect; nearly all actives have a fitted effect of over 40% in size
Method in brief: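 CRCs from 8- or 11-point titrations (lowest final 0.59 nM NPC, 0.78 nM MIPE). Cell viability: CellTiter-Glo after 48 h incubation, 15 min room-temperature development, luminescence imaging.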

[13] = qHTS of pediatric cancer cell lines to identify multiple opportunities for drug repurposing: Primary screen for BT-12 cells (AID 1347101); details: BT-12 viability, CellTiter-Glo luminescence, 48 h; note: potency is the fitted concentration of half-maximal effect; nearly all actives have a fitted effect of over 25% in size
Method in brief: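 Cells (500-1,000/well) rested 5 h, then received compounds for 48 h; metabolically active cells were measured by CellTiter-Glo luminescence. Final concentrations spanned up to 46 µM (MIPE, 11-point) or 0.59 nM-46 µM (NPC, 8-point) in primary screens, 11-point in follow-ups.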

[14] = target: Protein phosphatase 1D (Homo sapiens) (UniProt O15297); experiment: RapidFire Mass Spectrometry qHTS Assay for Modulators of WT P53-Induced Phosphatase 1 (WIP1) (AID 1347424); details: WIP1 dephosphorylation of phosphopeptide, RapidFire MS;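 note: amount of dephosphorylated VEPPL-S-QETFS peptide product formed by WIP1; potency is the fitted concentration of half-maximal effect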
Method in brief: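 Mass-spectrometric measurement of dephosphorylated peptide after a 5 min room-temperature reaction of 10 nM WIP1 with 2 uM phosphopeptide, following 1 h compound preincubation in 30 mM MgCl2 buffer.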

[15] = Primary qHTS for small molecule stabilizers of the endoplasmic reticulum resident proteome: Secreted ER Calcium Modulated Protein (SERCaMP) assay (AID 1508630); details: SH-SY5Y GLuc-SERCaMP (Gaussia luciferase released on ER calcium loss) secretion, thapsigargin, luminescence; note: potency is the fitted concentration of half-maximal effect
Method in brief: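 The SH-SY5Y reporter protocol was run at 3 concentrations up to 38.3 uM (primary) or 11 concentrations (follow-up): 16 h compound, 100 nM thapsigargin for 4 h, then extracellular luciferase luminescence.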

[16] = Cytotoxicity counterscreen for inhibitors of SARS-CoV-2 cell entry (AID 1645845; calls by dose curve; note: potency is the fitted concentration of half-maximal effect; nearly all actives have a fitted effect of over 50% in size); details: cell viability (SARS-CoV-2 entry assay cells)
Method in brief: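 After a 15 min room-temperature ATPLite 1step step, luminescence reflected ATP remaining in HEK293-ACE2 cells exposed to compound for 1 h plus 48 h at 37 C, with percent activity set by cell and no-cell controls.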

[17] = Primary qHTS for inhibitors of nuclear receptor binding SET domain protein 2 (NSD2) in an isogenic RCH-ACV NSD2 p.E1099K mutant (9B) (AID 1645876); details: RCH-ACV NSD2 E1099K (9B) viability, CellTiter-Glo, 72 h; note: potency is the fitted concentration of half-maximal effect; nearly all actives have a fitted effect of over 70% in size
[18] = Primary qHTS for inhibitors of nuclear receptor binding SET domain protein 2 (NSD2) in an RCH-ACV wild type WT cells (2C) (AID 1645877); details: RCH-ACV (leukaemia line) NSD2 WT (2C) viability, CellTiter-Glo, 72 h; note: potency is the fitted concentration of half-maximal effect; nearly all actives have a fitted effect of over 70% in size
CRL-7250 = normal cell line; experiment: Cytotoxic Profiling of Annotated Libraries Using Quantitative High-Throughput Screening (AID 1296008); details: Five cell lines viability, CellTiter-Glo ATP luminescence, 48-72 h; note: potency is the fitted concentration of half-maximal effect; nearly all actives have a fitted effect of over 60% in size
Method in brief: (§1)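 Compounds were pin-transferred onto cells and incubated 48 or 72 hr at 37 degree Celsius, 95% humidity. CellTiter-Glo was added, plates sat 10 min at room temperature, then ATP-coupled luminescence was imaged as the viability read-out.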

KB-3-1 = experiment: as above; details: Five cell lines viability, CellTiter-Glo ATP luminescence, 48-72 h
Method in brief: as §1

Es-2 = experiment: Primary qHTS to identify gynecologic anti-cancer compounds using libraries of approved drugs and bioactive compounds (AID 1345084); details: Gynecologic cancer cell panel viability, ATPlite luminescence, 48 h; note: potency is the fitted concentration of half-maximal effect; nearly all actives have a fitted effect of over 55% in size
Method in brief: (§2)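 Cytotoxicity screen measuring ATP content by luciferase luminescence. Each compound is applied at five concentrations for 48 h at 37 C with 5% CO2.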

Hek293T = experiment: as above; details: Gynecologic cancer cell panel viability, ATPlite luminescence, 48 h, control line for the selectivity index
Method in brief: as §2

OV90 = experiment: as above; details: Gynecologic cancer cell panel viability, ATPlite luminescence, 48 h
Method in brief: as §2

PA-1 = experiment: as above; details: Gynecologic cancer cell panel viability, ATPlite luminescence, 48 h
Method in brief: as §2

SKOV3 = experiment: as above; details: Gynecologic cancer cell panel viability, ATPlite luminescence, 48 h
Method in brief: as §2

Tov-21-G = experiment: as above; details: Gynecologic cancer cell panel viability, ATPlite luminescence, 48 h
Method in brief: as §2

CP266 = experiment: qHTS profiling for inhibitors of Plasmodium falciparum proliferation (AID 504749); note: potency is the fitted concentration of half-maximal effect; nearly all actives have a fitted effect of over 60% in size; details: P. falciparum in erythrocytes, SYBR Green DNA, 72 h
Method in brief: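 Fluorescence of SYBR Green-bound parasite DNA, read at 485/535 nm, served as the growth measure. Infected erythrocytes were cultured with compound 72 h; artemisinin (0.29 uM) and DMSO wells defined the normalization range.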

[19] = target: Peroxisome proliferator-activated receptor delta (Homo sapiens) (UniProt Q03181); experiment: qHTS assay for small molecule antagonists of peroxisome proliferator-activated receptor delta signaling (AID 588535; active = well fitted inhibition curve with a large enough effect in the signal ratio, with a control signal flat, not every such curve was filed as active; inconclusive = small, poorly fitted or top-dose-only effect, or effect the other way, or a change in a side signal; inactive = no such curve, though single readings can be large or run the other way; the % refers to the signal ratio); details: HEK293T PPARd-UAS-bla, beta-lactamase FRET ratio, 18 h; activity change, negative = inhibition: at 76.7 µM (top of the series)
[20] = target: Peroxisome proliferator-activated receptor gamma (Homo sapiens) (UniProt P37231); experiment: qHTS assay for small molecule antagonists of peroxisome proliferator-activated receptor gamma signaling (AID 588537; active = well fitted inhibition curve with a large enough effect in the signal ratio, with a control signal flat, not every such curve was filed as active; inconclusive = small, poorly fitted or top-dose-only effect, or effect the other way, or a change in a side signal; the % refers to the signal ratio;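 note: reporter cells co-stimulated with 50 nM rosiglitazone agonist during compound treatment; % of control where 0% means no effect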); details: HEK293 PPARg-UAS-bla, beta-lactamase ratio, antagonist mode; activity, negative = inhibition: at 76.8 µM (top of the series)
Method in brief: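 HEK293 cells, PPAR-gamma-UAS-bla, 3000/well. Pre-incubation 6-6.5 h, 37 C. Compound titration with rosiglitazone 50 nM final, 16 h. CCF4 dye, 2 h RT, dual-emission fluorescence.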

[21] = target: DNA repair nuclease/redox regulator APEX1 (Homo sapiens) (UniProt P27695); experiment: qHTS Validation Assay for Inhibitors of the Human Apurinic/apyrimidinic Endonuclease 1 (APE1) (AID 1705; note: potency is the fitted concentration of half-maximal effect); details: purified APE1 endonuclease activity, fluorescence, titration
Method in brief: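 Human APE1 was preincubated with compound for 15 min at room temperature, then 50 nM (final) THF-abasic double-stranded DNA substrate bearing 5'-TAMRA and 3'-BHQ-2 was added. Incision-driven fluorescence rise (ex 525/em 598 nm) was read kinetically.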

[22] = target: RecQ-like DNA helicase BLM (Homo sapiens) (UniProt P54132); experiment: qHTS Validation Assay for Inhibitors of Bloom's syndrome helicase (BLM) (AID 2364); details: BLM helicase DNA unwinding, fluorescence, in vitro; note: potency is the fitted concentration of half-maximal effect
[23] = target: ATP-dependent 6-phosphofructokinase (Trypanosoma brucei brucei) (UniProt O15648); experiment: qHTS Validation Assay to Find Inhibitors of T. brucei phosphofructokinase (AID 485368); note: potency is the fitted concentration of half-maximal effect; details: T. brucei PFK enzyme assay, qHTS 7-point titration
[24] = qHTS Assay for Identification of Small Molecule Agonists for Hypoxia Response Element Signaling Pathway (AID 914; active = well fitted activation curve with a large enough effect in the signal ratio, with a control signal flat, not every such curve was filed as active; inconclusive = small, poorly fitted or top-dose-only effect, or effect the other way, or a change in a side signal; the % refers to the signal ratio; note: % of control where 0% means no effect); details: ME-180 (cervical carcinoma) HRE-bla reporter, beta-lactamase ratio, CoCl2, 17 h; activation: hits give high values

O=[N+]([O-])c1cccc([N+](=O)[O-])c1
inconclusive: activity change, negative = cytotoxicity [1] -33.6% | Potency [2] 39.8 µM | Potency [3] 79.4 µM | activity change, negative = inhibition [4] 19.8% | Potency [5] 6.31 µM | activation [6] -37.2% | Potency [7] 6.42 µM | Potency [8] 66.8 µM | activation [9] -0.154% | Potency [10] 61.1 µM | Potency [11] 66.8 µM | Potency [12] 35.8 µM | Potency [13] 26.2 µM | Potency [14] 3.98 µM | Potency [15] 5.01 µM | Potency [16] 31.6 µM | Potency [17] 40.1 µM | Potency [18] 40.1 µM | Potency (CRL-7250) 12.7 µM | Potency (KB-3-1) 56.2 µM | Potency (Es-2) 50.1 µM | Potency (Hek293T) 89.1 µM | Potency (OV90) 100 µM | Potency (PA-1) 70.8 µM | Potency (SKOV3) 11.2 µM | Potency (Tov-21-G) 70.8 µM | Potency (CP266) 0.0135 µM

OCCSCCO
inconclusive: Potency [15] 10 µM | Potency (PA-1) 8.91 µM

C/C1=C2N=C(/C=C3N=C(/C(C)=C4\[N-][C@@](C)([C@H]5N=C1[C@@](C)(CCC(=O)NC[C@H](C)OP(=O)([O-])O[C@@H]1[C@H](O)[C@H](n6cnc7cc(C)c(C)cc76)O[C@@H]1CO)[C@@H]5CC(N)=O)[C@](C)(CC(N)=O)[C@H]4CCC(N)=O)[C@@](C)(CC(N)=O)[C@@H]\3CCC(N)=O)C(C)(C)[C@@H]/2CCC(N)=O.[C-]#N.[Co+3]
inconclusive: Potency (CP266) 1.81 µM

[NH4+].[O-][Cl+3]([O-])([O-])[O-]
inconclusive: activity change, negative = inhibition [19] -14.5% | activity, negative = inhibition [20] 4.66% | activation [9] 14%

CN(C(=O)Cc1ccc(Cl)c(Cl)c1)[C@@H]1CCCC[C@@H]1N1CCCC1
inconclusive: Potency [21] 1 µM | Potency [22] 20 µM | Potency [23] 37.9 µM

[N-]=[N+]=Nc1ccc([As](=O)(O)O)cc1
inconclusive: activation [24] -7.56%

— PubChem BioAssay (NCATS)
